From article PMC9024448
Results are given in words; binding and its absence hold for the method and conditions named. Binding seen in cells or lysates may run through a third protein. Some results given as binding are weak or reduced against the parent protein; the word gives no strength.

Sequences of proteins named here, by UniProt entry; tags and fusion partners are left off.
UniProt Q61831: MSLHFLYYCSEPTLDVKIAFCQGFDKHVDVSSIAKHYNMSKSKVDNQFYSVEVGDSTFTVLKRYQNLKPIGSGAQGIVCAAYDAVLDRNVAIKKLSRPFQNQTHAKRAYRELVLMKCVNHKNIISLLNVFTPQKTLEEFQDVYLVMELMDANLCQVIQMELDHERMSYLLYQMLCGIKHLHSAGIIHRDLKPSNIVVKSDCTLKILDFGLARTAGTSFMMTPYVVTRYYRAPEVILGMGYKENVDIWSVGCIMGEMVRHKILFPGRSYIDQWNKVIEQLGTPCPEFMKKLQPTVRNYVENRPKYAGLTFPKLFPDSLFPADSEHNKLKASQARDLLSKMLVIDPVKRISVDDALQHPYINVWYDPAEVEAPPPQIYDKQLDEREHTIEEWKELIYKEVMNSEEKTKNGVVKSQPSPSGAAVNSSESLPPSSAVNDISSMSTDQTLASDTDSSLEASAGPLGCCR
UniProt Q91YI4: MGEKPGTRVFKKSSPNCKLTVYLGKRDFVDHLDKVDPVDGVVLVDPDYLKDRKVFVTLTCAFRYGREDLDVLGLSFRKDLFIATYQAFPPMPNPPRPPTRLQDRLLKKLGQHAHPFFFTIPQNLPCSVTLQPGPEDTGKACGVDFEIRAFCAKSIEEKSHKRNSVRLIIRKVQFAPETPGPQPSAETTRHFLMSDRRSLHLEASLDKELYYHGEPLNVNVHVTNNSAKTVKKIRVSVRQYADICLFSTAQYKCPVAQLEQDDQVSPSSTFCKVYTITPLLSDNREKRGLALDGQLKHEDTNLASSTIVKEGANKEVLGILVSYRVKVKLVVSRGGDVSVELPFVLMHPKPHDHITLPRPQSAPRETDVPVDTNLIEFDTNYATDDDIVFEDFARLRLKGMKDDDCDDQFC

T1: JIP1 (mouse (endogenous in murine hippocampal primary neurons and mouse brain)) (UniProt Q9WVI9)
T1 sequence: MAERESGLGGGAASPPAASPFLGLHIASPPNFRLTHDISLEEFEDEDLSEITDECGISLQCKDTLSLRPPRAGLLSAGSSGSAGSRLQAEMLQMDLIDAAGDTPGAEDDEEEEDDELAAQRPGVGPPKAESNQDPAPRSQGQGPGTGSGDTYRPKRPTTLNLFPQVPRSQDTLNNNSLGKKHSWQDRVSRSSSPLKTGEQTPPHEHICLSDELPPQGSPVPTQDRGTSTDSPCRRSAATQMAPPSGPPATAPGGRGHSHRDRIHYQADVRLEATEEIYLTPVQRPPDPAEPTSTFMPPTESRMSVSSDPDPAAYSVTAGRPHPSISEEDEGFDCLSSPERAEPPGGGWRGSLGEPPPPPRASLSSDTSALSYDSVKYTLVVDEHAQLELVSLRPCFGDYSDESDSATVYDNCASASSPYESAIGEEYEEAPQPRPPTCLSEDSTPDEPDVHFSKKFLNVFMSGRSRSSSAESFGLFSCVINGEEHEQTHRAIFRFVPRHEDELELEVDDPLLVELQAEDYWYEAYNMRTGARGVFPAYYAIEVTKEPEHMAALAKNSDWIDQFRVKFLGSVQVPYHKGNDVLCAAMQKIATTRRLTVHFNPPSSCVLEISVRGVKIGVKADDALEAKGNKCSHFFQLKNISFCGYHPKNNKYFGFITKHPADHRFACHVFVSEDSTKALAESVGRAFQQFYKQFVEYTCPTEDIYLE

B1: JIP1 (protein, UniProt Q9WVI9 1-707)
chain: T1 sequence

Columns and labels:
[1] = target: T1, JIP1 (mouse (endogenous in murine hippocampal primary neurons and mouse brain)); assay: co-IP; Triton-insoluble fraction (TIF, postsynaptic protein-enriched) of mouse brain in PBS and 0.5% Triton X-100 (300 μg), 1 μg antibody (anti-JIP1, anti-PSD95, anti-JNK3 or anti-β-arrestin2) overnight at 4 °C, beads 1 h at 4 °C, five washes with PBS and 0.5% Triton, Western blot; IgG as control
[2] = target: c-Jun N-terminal kinase 3 (JNK3) (mouse (endogenous in murine hippocampal primary neurons and mouse brain)) (UniProt Q61831); assay: as above
[3] = target: c-Jun N-terminal kinase 3 (JNK3) (mouse (endogenous in murine hippocampal primary neurons and mouse brain)) (UniProt Q61831); assay: co-IP; protein extracts of cultured murine hippocampal primary neurons (300 μg), 1 μg antibody (anti-PSD95 or anti-JNK3) overnight at 4 °C, Dyna beads or protein A/G agarose 1 h at 4 °C, five washes with PBS and 0.5% Triton, Western blot; IgG as control
[4] = target: c-Jun N-terminal kinase 3 (JNK3) (mouse (endogenous in murine hippocampal primary neurons and mouse brain)) (UniProt Q61831); assay: co-IP; murine whole-brain (total brain) homogenate in PBS and 1% Triton X (300 μg), 1 μg antibody overnight at 4 °C, beads 1 h at 4 °C, five washes with PBS and 0.5% Triton, Western blot; baits not told in the text (Supplemental Figure S1)

Row | Molecule | binding [1] | binding [2] | binding [3] | binding [4]
1 | c-Jun N-terminal kinase 3 (JNK3) (from UniProt Q61831 1-464) (enzyme) | binds | – | – | –
2 | β-arrestin2 (from UniProt Q91YI4 1-410) | – | binds | binds | binds
3 | B1 | – | – | binds | binds
